# Assay results reported in patent US9926581B2, “Fagopyritol synthase genes and uses thereof” (Cornell Research Foundation, Inc., priority 2002, dated 2018).
# Legend:
# soybean explants = assay: Soybean explant feeding 3 days with 50 mM cyclitol in 1% sucrose, slow drying time course, soluble carbohydrates in axis, cotyledon, seed coat and leaf
# buckwheat explants = assay: Buckwheat explant feeding with 100 mM cyclitol in 1% sucrose for 5 days, soluble carbohydrates in embryos and leaf disks; type: in vivo, Fagopyrum esculentum; conditions: replicate values
# [1] = 3 days transport of sucrose (1%) and myo-inositol (50 mM), after 4 days slow drying, Rep 2
# [2] = 3 days transport of sucrose (1%) and myo-inositol (50 mM), after 14 days slow drying, Rep 1
# [3] = 3 days transport of sucrose (1%) and myo-inositol (50 mM), after 14 days slow drying, Rep 2
# [4] = 3 days transport of sucrose (1%) and myo-inositol (50 mM), before slow drying, Rep 1
# [5] = 3 days transport of sucrose (1%) and myo-inositol (50 mM), before slow drying, Rep 2
# [6] = 3 days transport of sucrose (1%) without cyclitols, after 2 days slow drying, Rep 1
# [7] = 3 days transport of sucrose (1%) without cyclitols, after 2 days slow drying, Rep 2
# [8] = 3 days transport of sucrose (1%) without cyclitols, after 4 days slow drying, Rep 1
# [9] = 3 days transport of sucrose (1%) without cyclitols, after 4 days slow drying, Rep 2
# [10] = 3 days transport of sucrose (1%) without cyclitols, after 14 days slow drying, Rep 1
# [11] = 3 days transport of sucrose (1%) without cyclitols, after 14 days slow drying, Rep 2
# [12] = 3 days transport of sucrose (1%) without cyclitols, before slow drying, Rep 1
# [13] = 3 days transport of sucrose (1%) without cyclitols, before slow drying, Rep 2
compound,measurement,setting,value
"CO[C@H]1[C@H](O)[C@@H](O[C@H]2O[C@H](CO)[C@H](O)[C@H](O)[C@H]2O)[C@@H](O)[C@H](O)[C@@H]1O [Galactopinitol A, galactopinitol A]",Accumulation of soluble carbohydrates in soybean axis,soybean explants; [1],11.97 μg/axis
same,Accumulation of soluble carbohydrates in soybean cotyledons,soybean explants; [1],54.91 μg/cotyledon
same,Accumulation of soluble carbohydrates in soybean seed coats,soybean explants; [1],4.87 μg/seed coat
same,Accumulation of soluble carbohydrates in soybean axis,soybean explants; [2],13.99 μg/axis
same,Accumulation of soluble carbohydrates in soybean cotyledons,soybean explants; [2],34.57 μg/cotyledon
same,Accumulation of soluble carbohydrates in soybean seed coats,soybean explants; [2],6.98 μg/seed coat
same,Accumulation of soluble carbohydrates in soybean axis,soybean explants; [3],10.23 μg/axis
same,Accumulation of soluble carbohydrates in soybean cotyledons,soybean explants; [3],28.69 μg/cotyledon
same,Accumulation of soluble carbohydrates in soybean seed coats,soybean explants; [3],7.08 μg/seed coat
same,Accumulation of soluble carbohydrates in soybean axis,soybean explants; [4],4.31 μg/axis
same,Accumulation of soluble carbohydrates in soybean cotyledons,soybean explants; [4],9.46 μg/cotyledon
same,Accumulation of soluble carbohydrates in soybean axis,soybean explants; [5],0 μg/axis
same,Accumulation of soluble carbohydrates in soybean cotyledons,soybean explants; [5],10.00 μg/cotyledon
same,Accumulation of soluble carbohydrates in soybean axis,soybean explants; [6],7.55 μg/axis
same,Accumulation of soluble carbohydrates in soybean cotyledon,soybean explants; [6],9.17 μg/cotyledon
same,Accumulation of soluble carbohydrates in soybean seed coats,soybean explants; [6],0 μg/seed coat
same,Accumulation of soluble carbohydrates in soybean axis,soybean explants; [7],9.97 μg/axis
same,Accumulation of soluble carbohydrates in soybean cotyledon,soybean explants; [7],9.30 μg/cotyledon
same,Accumulation of soluble carbohydrates in soybean seed coats,soybean explants; [7],4.95 μg/seed coat
same,Accumulation of soluble carbohydrates in soybean axis,soybean explants; [8],17.42 μg/axis
same,Accumulation of soluble carbohydrates in soybean cotyledon,soybean explants; [8],114.04 μg/cotyledon
same,Accumulation of soluble carbohydrates in soybean seed coats,soybean explants; [8],5.54 μg/seed coat
same,Accumulation of soluble carbohydrates in soybean axis,soybean explants; [9],16.07 μg/axis
same,Accumulation of soluble carbohydrates in soybean cotyledon,soybean explants; [9],84.24 μg/cotyledon
same,Accumulation of soluble carbohydrates in soybean seed coats,soybean explants; [9],8.05 μg/seed coat
same,Accumulation of soluble carbohydrates in soybean axis,soybean explants; [10],16.14 μg/axis
same,Accumulation of soluble carbohydrates in soybean cotyledon,soybean explants; [10],102.80 μg/cotyledon
same,Accumulation of soluble carbohydrates in soybean seed coats,soybean explants; [10],5.79 μg/seed coat
same,Accumulation of soluble carbohydrates in soybean axis,soybean explants; [11],12.28 μg/axis
same,Accumulation of soluble carbohydrates in soybean cotyledon,soybean explants; [11],68.60 μg/cotyledon
same,Accumulation of soluble carbohydrates in soybean seed coats,soybean explants; [11],6.14 μg/seed coat
same,Accumulation of soluble carbohydrates in soybean axis,soybean explants; [12],0 μg/axis
same,Accumulation of soluble carbohydrates in soybean cotyledon,soybean explants; [12],9.90 μg/cotyledon
same,Accumulation of soluble carbohydrates in soybean axis,soybean explants; [13],0 μg/axis
same,Accumulation of soluble carbohydrates in soybean cotyledon,soybean explants; [13],9.21 μg/cotyledon
same,Soluble carbohydrates in embryos of seeds from buckwheat explants,"buckwheat explants; fed 100 mM D-chiro-inositol in 1% sucrose solution 5 days, 2 days slow drying",0 μg/embryo
same,Soluble carbohydrates in embryos of seeds from buckwheat explants,"buckwheat explants; fed 100 mM D-chiro-inositol in 1% sucrose solution 5 days, 4 days slow drying",0 μg/embryo
same,Soluble carbohydrates in embryos of seeds from buckwheat explants,"buckwheat explants; fed 100 mM D-chiro-inositol in 1% sucrose solution 5 days, 7 days slow drying",0 μg/embryo
same,Soluble carbohydrates in embryos of seeds from buckwheat explants,"buckwheat explants; fed 100 mM D-chiro-inositol in 1% sucrose solution, after 1 day feeding",0 μg/embryo
same,Soluble carbohydrates in embryos of seeds from buckwheat explants,"buckwheat explants; fed 100 mM D-chiro-inositol in 1% sucrose solution, after 5 days feeding",0 μg/embryo
same,Soluble carbohydrates in embryos of seeds from buckwheat explants,"buckwheat explants; fed 100 mM D-pinitol in 1% sucrose solution 5 days, 2 days slow drying",0 μg/embryo and 12.91 μg/embryo and 6.68 μg/embryo
same,Soluble carbohydrates in embryos of seeds from buckwheat explants,"buckwheat explants; fed 100 mM D-pinitol in 1% sucrose solution 5 days, 4 days slow drying",3.39 μg/embryo and 0 μg/embryo (2×)
same,Soluble carbohydrates in embryos of seeds from buckwheat explants,"buckwheat explants; fed 100 mM D-pinitol in 1% sucrose solution 5 days, 7 days slow drying",6.41 μg/embryo and 9.09 μg/embryo and 0 μg/embryo
same,Soluble carbohydrates in embryos of seeds from buckwheat explants,"buckwheat explants; fed 100 mM D-pinitol in 1% sucrose solution, after 1 day feeding",0 μg/embryo
same,Soluble carbohydrates in embryos of seeds from buckwheat explants,"buckwheat explants; fed 100 mM D-pinitol in 1% sucrose solution, after 5 days feeding",0 μg/embryo and 6.18 μg/embryo and 5.84 μg/embryo
same,Soluble carbohydrates in embryos of seeds from buckwheat explants,"buckwheat explants; fed 100 mM myo-inositol in 1% sucrose solution 5 days, 2 days slow drying",0 μg/embryo
same,Soluble carbohydrates in embryos of seeds from buckwheat explants,"buckwheat explants; fed 100 mM myo-inositol in 1% sucrose solution 5 days, 4 days slow drying",0 μg/embryo
same,Soluble carbohydrates in embryos of seeds from buckwheat explants,"buckwheat explants; fed 100 mM myo-inositol in 1% sucrose solution 5 days, 7 days slow drying",0 μg/embryo
same,Soluble carbohydrates in embryos of seeds from buckwheat explants,"buckwheat explants; fed 100 mM myo-inositol in 1% sucrose solution, after 1 day feeding",0 μg/embryo
same,Soluble carbohydrates in embryos of seeds from buckwheat explants,"buckwheat explants; fed 100 mM myo-inositol in 1% sucrose solution, after 5 days feeding",0 μg/embryo
same,Soluble carbohydrates in embryos of seeds from buckwheat explants,"buckwheat explants; fed 1% sucrose (without cyclitols) solution 5 days, 2 days slow drying",0 μg/embryo (2×) and tr
same,Soluble carbohydrates in embryos of seeds from buckwheat explants,"buckwheat explants; fed 1% sucrose (without cyclitols) solution 5 days, 4 days slow drying",0 μg/embryo
same,Soluble carbohydrates in embryos of seeds from buckwheat explants,"buckwheat explants; fed 1% sucrose (without cyclitols) solution 5 days, 7 days slow drying",0 μg/embryo
same,Soluble carbohydrates in embryos of seeds from buckwheat explants,"buckwheat explants; fed 1% sucrose (without cyclitols) solution, after 5 days feeding",0 μg/embryo and tr

# Values joined by “and” are separate entries in the source; they are usually repeats but may differ in a detail not shown here. Equal entries are not always repeated.
